Results deposited as PubChem BioAssay AID1053208 (Peter MacCallum Cancer Centre, 2014)
Here is a random part of about 17,000 reagents. 788 of all reagents (4.7%) count as active. 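Calls rest on z-score classes alone; an extra cut-off of viability at most 70% of control was not applied to them.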 Reagent sequences are not shown.

Assay: 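Synthetic lethal interactions between gene loss and doxorubicin in osteosarcoma cells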 (primary screen)
Cell system: mouse osteosarcoma cells, early-passage culture from an engineered mouse model of fibroblastic bone tumour
Reagent: siRNA pool against mouse genes, 40 nM
Duration: about 120 h (48 h before drug, then 72 h with drug)
Conditions: doxorubicin 100 nM for 72 h, roughly 30-40% inhibitory dose
Measured: 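Luminescent ATP signal taken as viability with or without 100 nM doxorubicin for 72 h; mean of two wells set against non-targeting siRNA and turned into robust z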
Direction: viability z-score with doxorubicin and doxorubicin viability vs non-targeting: higher = more viable cells under doxorubicin; viability z-score without drug: higher = more viable cells with knock-down alone; z-score of drug to no-drug ratio: higher = less drug sensitisation by knock-down
Rule for the call: 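Called active if knock-down leaves viability unchanged without drug (z within -2 to 2) but lowers it with doxorubicin (z at or under -2)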

| gene | combined z-score class | viability z-score with doxorubicin | viability z-score without drug | z-score of drug to no-drug ratio | doxorubicin viability vs non-targeting | Call |
| --- | --- | --- | --- | --- | --- | --- |
| Hgd (homogentisate 1, 2-dioxygenase) | no change with or without drug | -0.22 | 0.84 | -0.67 | 0.92 | inactive |
| Padi2 (peptidyl arginine deiminase, type II) | no change with or without drug | -0.67 | -0.84 | 0 | 0.88 | inactive |
| Sdc2 (syndecan 2) | no change with or without drug | -0.22 | -0.17 | 0 | 0.92 | inactive |
| Comp (cartilage oligomeric matrix protein) | no change with or without drug | 0 | -0.84 | 0.67 | 0.94 | inactive |
| Tex15 (testis expressed gene 15 meiosis and synapsis associated) | high cell count with doxorubicin only | 2.81 | 1.85 | 1.57 | 1.19 | inactive |
| Mdn1 (midasin AAA ATPase 1) | no change with or without drug | -0.45 | 0.67 | -0.79 | 0.9 | inactive |
| Rab11fip1 (RAB11 family interacting protein 1 (class I)) | no change with or without drug | 1.35 | 0.84 | 0.9 | 1.06 | inactive |
| Or2d4 (olfactory receptor family 2 subfamily D member 4) | no change with or without drug | -0.9 | -0.17 | -0.79 | 0.86 | inactive |
| E2f7 (E2F transcription factor 7) | no change with or without drug | -0.67 | -0.17 | -0.45 | 0.88 | inactive |
| Strn4 (striatin, calmodulin binding protein 4) | no change with or without drug | 0.34 | -0.34 | 0.67 | 0.97 | inactive |
| Hoxaas2 (Hoxa cluster antisense RNA 2) | no change with or without drug | 0.67 | 0.84 | 0.22 | 1 | inactive |
| Cdc14a (CDC14 cell division cycle 14A) | no change with or without drug | -1.35 | -0.51 | -1.01 | 0.82 | inactive |
| Nedd8 | no change with or without drug | 0.67 | -1.18 | 1.8 | 1 | inactive |
| Mrps21 (mitochondrial ribosomal protein S21) | no change with or without drug | 0.34 | -1.01 | 1.24 | 0.97 | inactive |
| Ttc16 (tetratricopeptide repeat domain 16) | no change with or without drug | -0.22 | 0.17 | -0.22 | 0.92 | inactive |
| Fam98a (family with sequence similarity 98, member A) | high cell count without drug only | 0.45 | 2.19 | -0.79 | 0.98 | inactive |
| 4930470P17Rik (RIKEN cDNA 4930470P17 gene) | no change with or without drug | -1.01 | 1.52 | -1.8 | 0.85 | inactive |
| Map3k2 (mitogen-activated protein kinase kinase kinase 2) | no change with or without drug | -0.79 | -1.35 | 0.22 | 0.87 | inactive |
| Ccr1 (C-C motif chemokine receptor 1) | no change with or without drug | -0.45 | 0.17 | -0.45 | 0.9 | inactive |
| Fabp6 (fatty acid binding protein 6) | no change with or without drug | 1.12 | -0.17 | 1.46 | 1.04 | inactive |
| Or5d43 (olfactory receptor family 5 subfamily D member 43) | no change with or without drug | -1.57 | -1.35 | -0.67 | 0.8 | inactive |
| Mcts1 (malignant T cell amplified sequence 1) | no change with or without drug | 1.8 | 0.17 | 1.91 | 1.1 | inactive |
| Vax2 (ventral anterior homeobox 2) | no change with or without drug | -0.11 | -0.17 | 0.11 | 0.93 | inactive |
| Kiss1r (KISS1 receptor) | no change with or without drug | 0 | 1.85 | -1.01 | 0.94 | inactive |
| Slc35b3 | low cell count with and without drug | -3.6 | -2.36 | -2.36 | 0.62 | inactive |
| Nkx2-3 (NK2 homeobox 3) | no change with or without drug | 0 | -0.51 | 0.45 | 0.94 | inactive |
| Dsg1b (desmoglein 1 beta) | no change with or without drug | -0.34 | -0.51 | 0.11 | 0.91 | inactive |
| Trhde (TRH-degrading enzyme) | no change with or without drug | 0.9 | 0.34 | 0.79 | 1.02 | inactive |
| Zfp106 (zinc finger protein 106) | no change with or without drug | -0.79 | -1.01 | 0 | 0.87 | inactive |
| Plod2 (procollagen lysine, 2-oxoglutarate 5-dioxygenase 2) | low cell count with and without drug | -2.81 | -2.19 | -1.57 | 0.69 | inactive |
| Copz1 (coatomer protein complex, subunit zeta 1) | no change with or without drug | -1.57 | -1.01 | -0.9 | 0.8 | inactive |
| Mcmdc2 (minichromosome maintenance domain containing 2) | no change with or without drug | 1.35 | 1.85 | 0.22 | 1.06 | inactive |
| Larp6 (La ribonucleoprotein 6, translational regulator) | no change with or without drug | 0.22 | 0.51 | 0 | 0.96 | inactive |
| Gm4884 (predicted gene 4884) | no change with or without drug | 0 | 0.17 | 0 | 0.94 | inactive |
| Tmed1 (transmembrane p24 trafficking protein 1) | no change with or without drug | 1.12 | -0.17 | 1.46 | 1.04 | inactive |
| Dgkz (diacylglycerol kinase zeta) | no change with or without drug | 0.34 | -1.18 | 1.35 | 0.97 | inactive |
| Cox7b2 (cytochrome c oxidase subunit 7B2) | no change with or without drug | -1.35 | 1.69 | -2.25 | 0.82 | inactive |
| Ggta1 (glycoprotein galactosyltransferase alpha 1, 3) | high cell count without drug only | 1.01 | 2.36 | -0.45 | 1.03 | inactive |
| Prss28 (serine protease 28) | no change with or without drug | -0.67 | 0 | -0.56 | 0.88 | inactive |
| Tacr3 (tachykinin receptor 3) | no change with or without drug | -0.34 | 0.84 | -0.79 | 0.91 | inactive |
| Or9r7 (olfactory receptor family 9 subfamily R member 7) | no change with or without drug | 0.11 | -0.34 | 0.45 | 0.95 | inactive |
| Srprb (signal recognition particle receptor, B subunit) | no change with or without drug | -0.9 | 0.17 | -0.9 | 0.86 | inactive |
| Magea13 (MAGE family member A13) | no change with or without drug | -0.79 | -0.17 | -0.56 | 0.87 | inactive |
| Atp5mj (ATP synthase membrane subunit j) | no change with or without drug | 1.12 | 0.51 | 0.9 | 1.04 | inactive |
| 5430414B19Rik (RIKEN cDNA 5430414B19 gene) | no change with or without drug | -1.57 | 0 | -1.57 | 0.8 | inactive |
| Mrpl55 (mitochondrial ribosomal protein L55) | low cell count with and without drug | -2.25 | -3.04 | -0.22 | 0.74 | inactive |
| Srsf2 (serine and arginine-rich splicing factor 2) | no change with or without drug | 0.22 | -1.18 | 1.24 | 0.96 | inactive |
| Ptgir (prostaglandin I receptor (IP)) | no change with or without drug | -0.67 | -1.85 | 0.79 | 0.88 | inactive |
| Nqo1 (NAD(P)H dehydrogenase, quinone 1) | no change with or without drug | 0.79 | 1.35 | 0 | 1.01 | inactive |
| Med25 (mediator complex subunit 25) | no change with or without drug | 0.67 | 0.84 | 0.22 | 1 | inactive |

4 entries from above in another layout.
Copz1 (coatomer protein complex, subunit zeta 1)
- combined z-score class: no change with or without drug
- viability z-score with doxorubicin: -1.57
- viability z-score without drug: -1.01
- z-score of drug to no-drug ratio: -0.9
- doxorubicin viability vs non-targeting: 0.8
- Call: inactive

Mcmdc2 (minichromosome maintenance domain containing 2)
- combined z-score class: no change with or without drug
- viability z-score with doxorubicin: 1.35
- viability z-score without drug: 1.85
- z-score of drug to no-drug ratio: 0.22
- doxorubicin viability vs non-targeting: 1.06
- Call: inactive

Larp6 (La ribonucleoprotein 6, translational regulator)
- combined z-score class: no change with or without drug
- viability z-score with doxorubicin: 0.22
- viability z-score without drug: 0.51
- z-score of drug to no-drug ratio: 0
- doxorubicin viability vs non-targeting: 0.96
- Call: inactive

Gm4884 (predicted gene 4884)
- combined z-score class: no change with or without drug
- viability z-score with doxorubicin: 0
- viability z-score without drug: 0.17
- z-score of drug to no-drug ratio: 0
- doxorubicin viability vs non-targeting: 0.94
- Call: inactive
